{"source": "PubChem BioAssay AID504784 (Drosophila RNAi Screening Center, 2011)", "assay": "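Genome-wide knock-down for genes giving too much or too little stored lipid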 (primary screen)", "system": "Drosophila Kc167 embryonic cells", "reagents": "long dsRNA against Drosophila genes, about 250 ng dsRNA per well", "timing": "4 days", "challenge": "cells fed 400 µM oleic acid bound to BSA", "detection": "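Microscope images give a droplet-to-nucleus area ratio, taken as log and converted to a screen-wide B-score; higher values mean greater lipid storage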", "reading the numbers": "droplet/nuclear area B-score: higher = more stored lipid (overstorage)", "note": "The screen tested about 17,000 reagents; this is an unselected part of those that have a named target and a result. 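Each column is one replicate's B-score; the combined score over replicates was not deposited, so single values may mislead.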 Names joined by + are all predicted targets of the reagent. Further read-outs or replicates are left out here. Reagent sequences are not shown."}
{"gene":"sas","DRSC id":"DRSC12631","droplet/nuclear area B-score, replicate 1":-0.00987}
{"gene":"CG6304","DRSC id":"DRSC02948","droplet/nuclear area B-score, replicate 1":-2.42}
{"gene":"CG6665","DRSC id":"DRSC07006","droplet/nuclear area B-score, replicate 1":-1.13}
{"gene":"Df31","DRSC id":"DRSC03738","droplet/nuclear area B-score, replicate 1":0.798}
{"gene":"Df31","DRSC id":"DRSC22163","droplet/nuclear area B-score, replicate 1":-1.1}
{"gene":"bsd","DRSC id":"DRSC05953","droplet/nuclear area B-score, replicate 1":-0.143}
{"gene":"Octbeta3R","DRSC id":"DRSC15351","droplet/nuclear area B-score, replicate 1":0.00351}
{"gene":"Octbeta3R","DRSC id":"DRSC16191","droplet/nuclear area B-score, replicate 1":1.21}
{"gene":"Octbeta3R","DRSC id":"DRSC21853","droplet/nuclear area B-score, replicate 1":0.447}
{"gene":"Octbeta3R","DRSC id":"DRSC21902","droplet/nuclear area B-score, replicate 1":6.62}
{"gene":"Octbeta3R","DRSC id":"DRSC22350","droplet/nuclear area B-score, replicate 1":-0.996}
{"gene":"TwdlO","DRSC id":"DRSC16043","droplet/nuclear area B-score, replicate 1":0.681}
{"gene":"CG42700","DRSC id":"DRSC06292","droplet/nuclear area B-score, replicate 1":-1.18}
{"gene":"CG42700","DRSC id":"DRSC06293","droplet/nuclear area B-score, replicate 1":-0.822}
{"gene":"CG42700","DRSC id":"DRSC23109","droplet/nuclear area B-score, replicate 1":-1.28}
{"gene":"tRNA:Leu-CAA-2-3","DRSC id":"DRSC13633","droplet/nuclear area B-score, replicate 1":1.19}
{"gene":"CG10333","DRSC id":"DRSC02036","droplet/nuclear area B-score, replicate 1":-0.796}
{"gene":"Npc2g","DRSC id":"DRSC14296","droplet/nuclear area B-score, replicate 1":1.06}
{"gene":"CG1208","DRSC id":"DRSC12190","droplet/nuclear area B-score, replicate 1":-0.604}
{"gene":"Eig71Ek","DRSC id":"DRSC11158","droplet/nuclear area B-score, replicate 1":-0.025}
{"gene":"spartin","DRSC id":"DRSC12187","droplet/nuclear area B-score, replicate 1":-0.409}
{"gene":"capu","DRSC id":"DRSC00434","droplet/nuclear area B-score, replicate 1":-0.0145}
{"gene":"capu","DRSC id":"DRSC00807","droplet/nuclear area B-score, replicate 1":-0.687}
{"gene":"Vps11","DRSC id":"DRSC11909","droplet/nuclear area B-score, replicate 1":1.51}
{"gene":"Vps11","DRSC id":"DRSC21579","droplet/nuclear area B-score, replicate 1":-3.18}
{"gene":"Nepl21","DRSC id":"DRSC14133","droplet/nuclear area B-score, replicate 1":0.018}
{"gene":"CG32271","DRSC id":"DRSC08198","droplet/nuclear area B-score, replicate 1":-1.13}
{"gene":"Tsp39D","DRSC id":"DRSC03099","droplet/nuclear area B-score, replicate 1":-0.327}
{"gene":"Lcp1","DRSC id":"DRSC07455","droplet/nuclear area B-score, replicate 1":1.8}
{"gene":"jet","DRSC id":"DRSC03116","droplet/nuclear area B-score, replicate 1":-0.0745}
{"gene":"CG13042","DRSC id":"DRSC09923","droplet/nuclear area B-score, replicate 1":-0.0934}
{"gene":"Gr64d + Gr64e","DRSC id":"DRSC08446","droplet/nuclear area B-score, replicate 1":-0.598}
{"gene":"dyl","DRSC id":"DRSC08466","droplet/nuclear area B-score, replicate 1":0.0532}
{"gene":"dyl","DRSC id":"DRSC08467","droplet/nuclear area B-score, replicate 1":-1.36}
{"gene":"RpS11","DRSC id":"DRSC07289","droplet/nuclear area B-score, replicate 1":6.35}
{"gene":"RpS11","DRSC id":"DRSC22700","droplet/nuclear area B-score, replicate 1":2.5}
{"gene":"Gem4b + Gem4c","DRSC id":"DRSC17294","droplet/nuclear area B-score, replicate 1":-0.113}
{"gene":"IP3K1","DRSC id":"DRSC02734","droplet/nuclear area B-score, replicate 1":-0.261}
{"gene":"Cyfip","DRSC id":"DRSC15679","droplet/nuclear area B-score, replicate 1":1.94}
{"gene":"Cubn","DRSC id":"DRSC18256","droplet/nuclear area B-score, replicate 1":0.478}
